Experimental data as given in PubChem BioAssay AID1445 (SRMLSC, 2008).
Hit rate of the full screen: of about 220,000 compounds, about 910 (0.41%) were called active. The shares of active, inactive and inconclusive entries below differ from those in the screen.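 Rule for the calls: active = primary inhibition above the hit cutoff, then over 50% inhibition at one or more dose response concentrations (cut at about 23% in these data, passing the limit was not always enough); inconclusive = conflicting primary data, or primary hits not chosen for dose response; inactive = low primary inhibition, or under 50% at every dose.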

Chains of the proteins cited; added tags and fusions are not shown. Lines headed by an entry give the natural chain unless they say otherwise; changes in a name come on top.
UniProt O96935: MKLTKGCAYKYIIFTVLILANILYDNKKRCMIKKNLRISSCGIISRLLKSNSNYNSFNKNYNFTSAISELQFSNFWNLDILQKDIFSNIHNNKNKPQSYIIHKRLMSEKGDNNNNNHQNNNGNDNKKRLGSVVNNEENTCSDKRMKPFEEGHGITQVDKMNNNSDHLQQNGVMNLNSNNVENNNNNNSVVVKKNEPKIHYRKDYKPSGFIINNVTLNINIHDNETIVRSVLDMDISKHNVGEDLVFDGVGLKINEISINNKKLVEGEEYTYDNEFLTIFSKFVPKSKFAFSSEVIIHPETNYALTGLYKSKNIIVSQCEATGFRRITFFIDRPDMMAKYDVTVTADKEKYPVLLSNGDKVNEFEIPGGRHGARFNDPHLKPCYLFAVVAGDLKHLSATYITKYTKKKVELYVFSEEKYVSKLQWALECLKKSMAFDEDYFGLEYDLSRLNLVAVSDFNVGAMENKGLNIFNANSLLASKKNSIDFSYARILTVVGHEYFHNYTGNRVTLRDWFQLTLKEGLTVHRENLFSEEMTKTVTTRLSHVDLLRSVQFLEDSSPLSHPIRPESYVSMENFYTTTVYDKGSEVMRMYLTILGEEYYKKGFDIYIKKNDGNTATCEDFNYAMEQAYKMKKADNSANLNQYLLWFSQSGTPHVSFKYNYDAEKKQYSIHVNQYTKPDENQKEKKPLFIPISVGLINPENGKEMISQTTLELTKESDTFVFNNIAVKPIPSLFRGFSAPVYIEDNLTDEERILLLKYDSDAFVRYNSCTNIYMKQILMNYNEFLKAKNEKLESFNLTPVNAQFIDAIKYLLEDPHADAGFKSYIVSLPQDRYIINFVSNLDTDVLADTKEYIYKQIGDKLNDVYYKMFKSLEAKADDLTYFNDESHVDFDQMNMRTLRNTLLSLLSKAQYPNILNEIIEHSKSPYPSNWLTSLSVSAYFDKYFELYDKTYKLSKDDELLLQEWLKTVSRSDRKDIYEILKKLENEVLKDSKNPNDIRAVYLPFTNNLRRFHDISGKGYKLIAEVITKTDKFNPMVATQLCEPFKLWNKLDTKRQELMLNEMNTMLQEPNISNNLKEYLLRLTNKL

Each compound was assayed against Aminopeptidase N (Plasmodium falciparum (isolate 3D7)) (UniProt O96935) (assay: P. falciparum M1AAP inhibitors, biochemical, fluorogenic H-Leu-NHMec substrate, 1536-well (AID 1445;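 note: plate controls were DMSO full reaction for no effect and no enzyme background for full effect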)). Conditions: recombinant M1AAP, H-Leu-NHMec fluorogenic kinetic assay; at 30 µM, stronger effect = higher value unless noted.
With `COc1ccc(/C=N/NC(=O)/C(=C/c2ccccc2)CCO)cc1` the inhibition was inconclusive: 27.4%. In the case of `O=C(Cn1cc(C(F)(F)F)ccc1=O)N/N=C/c1ccccc1O`, the inhibition is reported as inactive: 1.53%. `O=C(NCc1cccs1)C1CCN(S(=O)(=O)c2ccc3c(c2)OCCO3)CC1` was tested, and the inhibition was active: 23.4%. With `CCc1nnc(NS(=O)(=O)c2ccc(Nc3ccc([N+](=O)[O-])c4nonc34)cc2)s1` the inhibition was inconclusive: 24.4%. `O=C1Nc2ccc(NS(=O)(=O)c3cccs3)c3cccc1c23` was tested, and the inhibition was inconclusive: 26.8%. `O=C(Nc1ccc2c(c1)OCCO2)C1CCN(S(=O)(=O)c2ccc3c(c2)OCCO3)CC1` was tested, and the inhibition was inactive: 9.64%. `CC1=C(C(=O)c2ccccc2)C(c2ccc(OC(F)F)cc2)NC(=S)N1` (configuration not stated) was tested, and the inhibition was inactive: 3.11%. With `O=C(O)c1cccc(-n2cccc2/C=C2/NC(=O)N(c3ccc(Cl)cc3)C2=O)c1` the inhibition was inconclusive: 39.8%. `Cc1cccc(C(=O)NC2CCN(CC(=O)NCc3cccs3)CC2)c1` was tested, and the inhibition was inconclusive: 28.3%. For `CC(=O)c1ccccc1OC(=O)c1c(F)cccc1F`, the inhibition was inactive: 3.59%. With `Cc1ccc(-n2cccc2/C=C2/C(=N)N3C(=NC2=O)SN=C3S(C)(=O)=O)cc1` the inhibition was inconclusive: 28.3%. In the case of `Nc1nc(SCC(=O)Nc2cc(-c3ccccc3)nn2-c2ccccc2)n[nH]1`, the inhibition is reported as active: 26.4%. With `COc1cc(OC)cc(C(=O)NC(=S)NCc2ccco2)c1` the inhibition was inactive: 5.49%. In the case of `CCOC(=O)C1=C(C)NC2=C(C(=O)C(C(=O)OCC)C(c3cccc(OC)c3)C2)C1c1ccccn1` (configuration not stated), the inhibition is reported as inconclusive: 25.8%. `N#CC1=C(N)C2=C(N3CCCCC3)CCCC2C1(C#N)C#N` (configuration not stated) was tested, and the inhibition was active: 27.6%. For `COn1c(SCc2cccnc2)nc2ccccc2c1=O`, the inhibition was inactive: -0.13%. In the case of `Cc1ccc(C(=O)N2CCN(c3ccc(NC(=O)c4cccnc4)cc3)CC2)cc1`, the inhibition is reported as active: 25.7%. For `NC(=S)N=Nc1c(O)n(CCCl)c2ccc(Cl)cc12`, the inhibition was inconclusive: 28.2%. For `O=C(CN1CCN(c2ncc(C(F)(F)F)cc2Cl)CC1)N1CCN(c2ncc(C(F)(F)F)cc2Cl)CC1`, the inhibition was inconclusive: 26.7%. In the case of `Cc1ccc(S(=O)(=O)Nc2nc3n(n2)C(c2ccc(Cl)cc2)CC(=O)N3)cc1` (configuration not stated), the inhibition is reported as inactive: 4.26%. `Cc1ccc(-c2cnc(-c3ccncc3)o2)cc1` was tested, and the inhibition was inconclusive: 30.8%. `Cc1[nH][nH]c(=O)c1C(c1ccc(O)c([N+](=O)[O-])c1)c1c(C)[nH][nH]c1=O` was tested, and the inhibition was inactive: 14%. For `Cc1noc(NC(=O)c2cccc(C(F)(F)F)c2)c1Cl`, the inhibition was inactive: 1.44%. For `Cc1cc(Nc2ccccc2)nc(NCc2ccccc2)n1`, the inhibition was inconclusive: 28.1%. For `Cc1nc(CNS(=O)(=O)c2ccc3c(c2)OCCO3)cs1`, the inhibition was inconclusive: 23.3%. For `S=C1NC(c2ccccc2)N2C(=S)NC(c3ccccc3)N12` (configuration not stated), the inhibition was inconclusive: 24.5%. With `CCOC(=O)c1ccc(Nc2nnc(C)c3ccccc23)cc1` the inhibition was inactive: 6.41%. In the case of `Cc1ccc(C)c(S(=O)(=O)Nc2cc(SCC(=O)O)c(O)c3ccccc23)c1`, the inhibition is reported as inconclusive: 35.3%. In the case of `CCN(C(=O)CSc1cc(-c2ccccc2)c2ccc(OC)cc2n1)C1CCS(=O)(=O)C1` (configuration not stated), the inhibition is reported as inconclusive: 24.4%. In the case of `Nn1c(SCC(=O)Nc2ccc3c(c2)OCO3)nnc1-c1ccncc1`, the inhibition is reported as inconclusive: 7.45%. `Cc1cc(OCc2nn[nH]n2)c2c(C)c(CC(=O)O)c(=O)oc2c1` was tested, and the inhibition was inactive: 0.25%. With `COc1ccc(NC(=O)COc2ccc(/C=N/NC(=O)c3cccnc3)cc2OC)cc1` the inhibition was inconclusive: 27.3%. `O=C(NCc1ccco1)C1CCN(S(=O)(=O)c2cccc3cccnc23)CC1` was tested, and the inhibition was inactive: 0.35%. In the case of `Cc1[nH]c2ccc(OC(=O)N3CCOCC3)cc2c1C(=O)OC(C)C`, the inhibition is reported as inactive: 8.46%. `Cc1ccc(S(=O)(=O)Oc2ccccc2/C=N/NC(=O)c2nn(C)cc2[N+](=O)[O-])cc1` was tested, and the inhibition was inactive: 9.1%. `Cc1ccc(S(=O)(=O)Nc2nc3ccccc3nc2Nc2cccc(S(=O)(=O)N3CCCC3)c2)cc1` was tested, and the inhibition was inconclusive: 27.1%. In the case of `COc1ccccc1NC(=O)CSc1nc(O)cc(=O)[nH]1`, the inhibition is reported as inconclusive: 27.1%. For `O=C1/C(=C/c2ccc(O)c(O)c2)Oc2cc(O)ccc21`, the inhibition was inconclusive: 24.2%. For `O=C(OC1CCOC1=O)c1ccc(Cl)c(S(=O)(=O)N2CCCCC2)c1` (configuration not stated), the inhibition was inactive: 1.33%. `COc1cc(/C=C2\SC(=N)N(c3ccc4c(c3)OCO4)C2=O)cc(OC)c1O` was tested, and the inhibition was inactive: 5.15%. For `Cc1ccc(-c2nc3ccccn3c2Nc2ccccc2)o1`, the inhibition was inconclusive: 24.3%. `CC1CN(C2CCCCC2)c2nc3c(c(=O)[nH]c(=O)n3C)n2C1` (configuration not stated) was tested, and the inhibition was inconclusive: 26.4%. For `COc1ccc(N/N=C(\C=N\O)C(=O)c2ccc(OC)cc2)cc1`, the inhibition was active: 24.1%. For `COP(=O)(OC)c1nc(-c2cccc3ccccc23)oc1N1CCCCC1`, the inhibition was inconclusive: 27.5%. In the case of `COc1cccc(/C=N/Nc2nc3ccccc3n3cnnc23)c1`, the inhibition is reported as inactive: 0.89%. `CCCCc1nc(NCCNC(=O)c2ccccc2)c(C#N)c2c1CSC(C)(C)C2` was tested, and the inhibition was active: 24.4%. In the case of `O=[N+]([O-])c1ccc(-c2ccc(/C=N/c3c(-c4ccco4)nc4ccccn34)o2)cc1`, the inhibition is reported as active: 27.6%. For `O=C(Nc1cccc2ccccc12)c1ccccc1NS(=O)(=O)c1cccc2cccnc12`, the inhibition was inconclusive: 27%. `COc1cc(-c2nc3ccccn3c2/N=C/c2ccccc2)ccc1O` was tested, and the inhibition was inconclusive: 28.1%. In the case of `CCCS(=O)(=O)N1CCC(C(=O)NCc2ccco2)CC1`, the inhibition is reported as inconclusive: 23.6%. `COc1ccccc1/C=C/C(=O)NCC(=O)N/N=C/c1ccccc1[N+](=O)[O-]` was tested, and the inhibition was inconclusive: 25%. With `O=C(O)C(Cc1ccccc1)N1C(=O)/C(=C/c2cccs2)SC1=S` (configuration not stated) the inhibition was inactive: 11.1%. In the case of `Cc1ccc(S(=O)(=O)NNC(=O)CCC(=O)Nc2ccccc2)cc1`, the inhibition is reported as inconclusive: 9.78%. With `CC1CCCN(Cc2c(O)ccc3c4c(c(=O)oc23)CCCC4)C1` (configuration not stated) the inhibition was inconclusive: 27%. With `COc1ccc(-c2[nH]c(-c3cccc(OC)c3)nc2SCC(=O)NCc2ccco2)cc1` the inhibition was active: 25.2%. In the case of `c1ccc(Nc2c(-c3ccco3)nc3ccccn23)cc1`, the inhibition is reported as inconclusive: 26.2%. With `Cc1ccc(-n2c(SCc3cn4ccsc4n3)nc3ccccc3c2=O)cc1` the inhibition was active: 25.9%. In the case of `Cc1ccc2[nH]cc(C(=O)CN3CCN(c4ccccn4)CC3)c2c1`, the inhibition is reported as inconclusive: 24.1%. With `O=C(CN1CCOCC1)NNc1nc(-c2ccccc2)c2cc(Br)ccc2n1` the inhibition was inactive: 20.7%. For `CCOC(=O)CN(C(=O)CNC(=O)c1ccco1)C(C(=O)NC1CCCCC1)c1cccs1` (configuration not stated), the inhibition was inactive: 2.4%. In the case of `CC(C)Oc1ccc2c3c(c(=O)oc2c1)CCC3`, the inhibition is reported as inactive: 3.02%. In the case of `CC(=O)Nc1ccc(NC(=O)C2CCCN2C(=O)Nc2ccc(F)c([N+](=O)[O-])c2)cc1` (configuration not stated), the inhibition is reported as inactive: 2.21%. `Cc1c(N=Nc2ccc(O)cc2)c(=O)n(-c2ccccc2)n1C` was tested, and the inhibition was inconclusive: 24.9%. In the case of `COc1ccc(N=N/C(=C\O)C(=O)c2cccs2)cc1`, the inhibition is reported as inconclusive: 28%. For `CC(=O)N1N=C(c2c(-c3ccccc3)c3cc(C)ccc3[nH]c2=O)CC1c1ccco1` (configuration not stated), the inhibition was inactive: 20%. With `CCOc1ccc2[nH]c(=O)c(CN(Cc3ccco3)Cc3nnnn3Cc3ccccc3)cc2c1` the inhibition was inconclusive: 27.8%. For `COc1ccccc1NC(=O)Nc1cc(NC(=O)Nc2ccccc2OC)c(C)nc1C`, the inhibition was inconclusive: 25.9%. `O=C(N/N=C/c1ccc(Sc2ccccn2)o1)c1cc2ccccc2cc1O` was tested, and the inhibition was inactive: 33%. For `CC1CCc2nc3ccc(S(=O)(=O)N4CCC(C(=O)NC5CCCC5)CC4)cc3c(C(=O)O)c2C1` (configuration not stated), the inhibition was active: 23.4%. In the case of `Cc1c(NC(=O)c2ccc3c(c2)C(=O)N(Cc2ccco2)C3=O)cccc1C(=O)O`, the inhibition is reported as inactive: 3.77%. For `CCC(C)(C)n1nnnc1CN(Cc1ccco1)Cc1cc2cc3c(cc2[nH]c1=O)OCO3`, the inhibition was inconclusive: 25.3%. In the case of `COc1cc([N+](=O)[O-])cc(/C=N\NC(=O)C2COc3ccccc3O2)c1O` (configuration not stated), the inhibition is reported as inconclusive: 27.9%. `CCC(=O)N1CCN(c2nc(-c3ccccc3)c3c(c2C#N)CCCC3)CC1` was tested, and the inhibition was inconclusive: 15.2%. In the case of `CC(C)C(=O)N(c1cc2sc(=O)oc2c2ccccc12)S(=O)(=O)c1cccs1`, the inhibition is reported as active: 23.3%. For `CCNC(=O)C1CC(=O)N(Cc2ccc3c(c2)OCO3)C(=Nc2ccc(F)cc2)S1` (configuration not stated), the inhibition was active: 27%. With `O=C1NC(=S)S/C1=C\C=C\c1ccc([N+](=O)[O-])o1` the inhibition was inconclusive: 25.2%. With `CCOP(=O)(OCC)c1nc(/C=C/c2ccccc2)oc1NCc1ccccc1` the inhibition was inconclusive: 27.4%. With `Cc1cccc(NC(=O)C(NS(=O)(=O)c2ccc3c(c2)CCC(=O)N3)c2ccccc2)n1` (configuration not stated) the inhibition was inactive: 2.64%. With `Cc1ccc(NC(=O)Cn2c(O)c(N=NC(=O)c3cc4ccccc4cc3O)c3ccccc32)cc1` the inhibition was inconclusive: 29.4%. In the case of `COC(=O)CCC(=O)NNC(=O)Cc1ccccc1`, the inhibition is reported as inactive: 1.14%. In the case of `O=c1c(OC2OC(CO)C(O)C(O)C2O)c(-c2ccc(O)c(O)c2)oc2cc(O)cc(O)c12` (configuration not stated), the inhibition is reported as inconclusive: 26.7%. In the case of `CCC1CCC(C(=O)NNC(=O)c2cc(-c3ccco3)[nH]n2)CC1` (configuration not stated), the inhibition is reported as inconclusive: 27.3%. `COc1ccc(NC(=S)NC(=O)/C=C/c2cccs2)cc1` was tested, and the inhibition was inactive: 10.7%. In the case of `Cc1c(Cc2ccccc2)c(=O)oc2c(C)c(OCc3nn[nH]n3)ccc12`, the inhibition is reported as inconclusive: 11.2%. With `Cn1cnnc1SCC(=O)c1cc2ccccc2oc1=O` the inhibition was inconclusive: 26.4%. In the case of `COn1cnnc1-c1ccccc1`, the inhibition is reported as inconclusive: 28.2%. For `CCOc1cc(/C=N/NC(=O)c2ccc(-c3csc(Nc4ccc(C)cc4)n3)cc2)ccc1OCC(=O)O`, the inhibition was inactive: 14.3%.
